Among the data in patent publication US20140031259A1 are binding values, retold here.

Amino acid sequences for entries named in this document (tags omitted). A change or cut given only in a name is not applied to a line headed by its entry. Residues count along the entry.
UniProt P04386: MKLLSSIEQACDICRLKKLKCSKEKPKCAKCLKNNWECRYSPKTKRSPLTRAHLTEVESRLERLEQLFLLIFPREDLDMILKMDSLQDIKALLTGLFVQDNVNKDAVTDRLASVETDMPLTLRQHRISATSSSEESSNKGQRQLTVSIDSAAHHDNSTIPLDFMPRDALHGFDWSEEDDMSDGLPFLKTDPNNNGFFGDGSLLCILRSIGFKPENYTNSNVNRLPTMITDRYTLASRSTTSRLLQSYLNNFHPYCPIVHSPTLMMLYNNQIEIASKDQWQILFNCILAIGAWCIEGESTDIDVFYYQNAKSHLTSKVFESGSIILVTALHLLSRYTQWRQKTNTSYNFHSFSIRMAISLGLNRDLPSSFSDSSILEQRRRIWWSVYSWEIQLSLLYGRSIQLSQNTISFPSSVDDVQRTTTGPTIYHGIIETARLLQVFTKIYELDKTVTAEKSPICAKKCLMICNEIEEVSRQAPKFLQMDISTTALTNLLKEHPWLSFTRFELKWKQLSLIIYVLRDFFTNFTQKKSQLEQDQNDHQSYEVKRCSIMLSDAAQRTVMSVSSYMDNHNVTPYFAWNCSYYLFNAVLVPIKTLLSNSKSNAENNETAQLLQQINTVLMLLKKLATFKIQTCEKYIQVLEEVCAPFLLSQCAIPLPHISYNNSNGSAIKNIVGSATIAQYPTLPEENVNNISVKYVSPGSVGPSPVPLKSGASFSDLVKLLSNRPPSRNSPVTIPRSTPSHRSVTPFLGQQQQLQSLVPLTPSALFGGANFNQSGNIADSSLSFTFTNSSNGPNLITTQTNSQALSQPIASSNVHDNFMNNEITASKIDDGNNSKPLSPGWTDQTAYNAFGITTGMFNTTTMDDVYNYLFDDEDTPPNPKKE
UniProt P31749, residues 5-108: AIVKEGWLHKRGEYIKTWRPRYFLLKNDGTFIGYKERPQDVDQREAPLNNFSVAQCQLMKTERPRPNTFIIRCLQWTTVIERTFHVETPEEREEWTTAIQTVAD

The target in this assay is AKT1 kinase domain (WT) fused to the Gal4 DNA binding domain (UniProt P04386). The assay can be described thus: mammalian 2-hybrid, luciferase reporter; reference pair. A general note: Reporter assays use an easily measured gene product as a stand-in for the process of interest.

Results are given in words; binding and its absence hold for the method and conditions named. Some binding calls cover weakened binding; strength is not graded here.

“AKT1 PH domain (WT) fused to the VP16 activation domain (from UniProt P31749 5-108)”: the binding result is “binds”.
